Results published in article doi:10.1101/2022.09.14.507933.
Substitutions are numbered along the chain they refer to. No constants are given. Whether binding was seen depends on the method and setting. Binding seen in cells or lysates may run through a third protein. Some entries that bind do so weakly or less than the wild type. Sequences can lack the tags named with a protein. Each block holds one binder with its values, some of them ahead of it.

What was measured:
Assay in all cases: co-IP
[1] = biological target: T1, Puf3-Flag (C-terminal Flag tag) (S. cerevisiae) (UniProt Q07807)
T1 sequence: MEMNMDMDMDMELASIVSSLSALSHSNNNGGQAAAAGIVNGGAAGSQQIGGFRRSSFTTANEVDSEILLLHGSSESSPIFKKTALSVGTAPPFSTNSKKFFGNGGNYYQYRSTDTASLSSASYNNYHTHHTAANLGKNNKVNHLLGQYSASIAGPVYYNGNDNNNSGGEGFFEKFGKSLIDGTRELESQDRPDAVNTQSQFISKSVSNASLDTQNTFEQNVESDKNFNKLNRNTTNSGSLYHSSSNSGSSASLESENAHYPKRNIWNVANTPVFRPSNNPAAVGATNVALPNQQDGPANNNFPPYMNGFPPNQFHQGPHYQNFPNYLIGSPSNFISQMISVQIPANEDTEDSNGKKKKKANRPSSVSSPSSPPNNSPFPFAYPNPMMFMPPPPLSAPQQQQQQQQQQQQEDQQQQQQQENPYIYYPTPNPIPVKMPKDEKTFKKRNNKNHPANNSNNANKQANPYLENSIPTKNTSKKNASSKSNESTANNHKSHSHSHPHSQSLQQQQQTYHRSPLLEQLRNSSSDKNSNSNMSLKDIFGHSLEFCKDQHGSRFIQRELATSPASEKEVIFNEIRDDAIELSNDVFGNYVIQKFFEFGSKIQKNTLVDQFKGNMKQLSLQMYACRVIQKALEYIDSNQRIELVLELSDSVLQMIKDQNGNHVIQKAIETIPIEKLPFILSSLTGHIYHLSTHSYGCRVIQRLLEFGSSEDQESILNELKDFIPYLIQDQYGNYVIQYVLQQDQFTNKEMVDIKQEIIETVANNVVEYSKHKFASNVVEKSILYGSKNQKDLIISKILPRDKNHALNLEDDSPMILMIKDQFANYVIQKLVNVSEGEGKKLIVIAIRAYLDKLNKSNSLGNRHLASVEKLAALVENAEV

[2] = biological target: T2, Pbp1 M8F-Flag (S. cerevisiae) (UniProt P53297)
T2 sequence: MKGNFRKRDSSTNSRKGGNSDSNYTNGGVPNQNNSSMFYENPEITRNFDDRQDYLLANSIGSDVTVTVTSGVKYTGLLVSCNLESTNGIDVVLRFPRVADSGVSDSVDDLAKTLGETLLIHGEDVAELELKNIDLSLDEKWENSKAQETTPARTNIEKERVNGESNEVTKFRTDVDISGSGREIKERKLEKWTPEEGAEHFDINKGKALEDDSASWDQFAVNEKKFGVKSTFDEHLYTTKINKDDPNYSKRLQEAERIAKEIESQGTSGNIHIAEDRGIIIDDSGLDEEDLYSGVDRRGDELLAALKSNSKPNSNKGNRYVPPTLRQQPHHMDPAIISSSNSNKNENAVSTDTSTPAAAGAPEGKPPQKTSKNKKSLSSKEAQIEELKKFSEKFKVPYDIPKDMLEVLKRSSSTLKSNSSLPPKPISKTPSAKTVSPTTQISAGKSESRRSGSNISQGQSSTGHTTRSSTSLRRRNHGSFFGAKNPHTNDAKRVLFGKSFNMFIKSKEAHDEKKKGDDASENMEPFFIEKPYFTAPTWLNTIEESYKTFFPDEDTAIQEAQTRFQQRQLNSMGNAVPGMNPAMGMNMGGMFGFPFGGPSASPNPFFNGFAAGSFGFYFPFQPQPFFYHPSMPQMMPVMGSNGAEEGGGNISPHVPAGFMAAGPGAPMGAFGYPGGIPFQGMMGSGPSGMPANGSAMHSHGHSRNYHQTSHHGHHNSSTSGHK

[3] = biological target: T3, Pbp1 M8Y-Flag (S. cerevisiae) (UniProt P53297)
T3 sequence: T2 sequence with F591Y, F595Y, F605Y, F606Y, F614Y, F616Y, F618Y, F625Y

[4] = biological target: T4, Pbp1-FLAG (poly(A)-binding protein - binding protein 1, C-terminal FLAG tag) (S. cerevisiae) (UniProt P53297)
T4 sequence: T2 sequence with F591M, F595M, F605M, F606M, F614M, F616M, F618M, F625M

- binding [1]: binds
B1: Pbp1, epitope-tagged, prey of the reciprocal Flag co-IP with Puf3-Flag (protein, UniProt P53297 1-722)
chain: T2 sequence with F591M, F595M, F605M, F606M, F614M, F616M, F618M, F625M

- binding [2]: binds
- binding [3]: binds
- binding [4]: binds
B2: Puf3-HA (C-terminal HA tag) (protein, UniProt Q07807 1-879)
chain: T1 sequence
